Experimental data published in patent publication US20200231685A1, “CONJUGATES FOR TREATING INFLAMMATORY DISEASE AND IDENTIFICATION OF PATIENTS LIKELY TO BENEFIT FROM SUCH TREATMENT” (The University of Bristol, priority 2013, published 2020).
For at least one compound, name, drawing or mass did not settle the structure.

Test system: Experimental Autoimmune Uveitis (EAU)
Assay type: in vivo, mouse
Conditions: Day 18; PMA and ionomycin 4 hours

## C[C@@H]1C[C@H]2[C@@H]3CCC4=CC(=O)C=C[C@]4(C)[C@@]3(F)[C@@H](O)C[C@]2(C)[C@@]1(O)C(=O)CO [Dex, dexamethasone]
  IL-17 expression in retina/eye infiltrating CD4+ cells: maintained (and even increased)
